Values are relative to the signal before dosing, not to a vehicle control; the signal also falls without drug.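 Fibroblast labels denote human fibroblasts, mainly primary ones from uterus (C12385, HUF), lung (H6013), bone (Hs27A), adrenal (HADF) and skin (WS1), plus mammary HMF and breast cancer-associated Hs343T. Cancer cells are basal-like or mesenchymal-like triple-negative breast cancer lines. A hit is a response shift exceeding 3x replicate standard deviation. The tissue of the other fibroblasts is not given here.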
System: MDAMB436
Assay: relative JC-1 red fluorescence (viability) vs pre-drug, coculture with fibroblast (fraction); higher = more viable cancer cells
Protocol: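 JC-1 labelled TNBC cells cocultured 1:1 (1,500 cells each) with CellTrace Violet stained primary or stromal fibroblasts in 384-well plates in FluoroBrite medium, treated with one of 42 anticancer drugs at 0.1, 1, 10 or 100 uM. JC-1 red fluorescence (mitochondrial integrity in cancer cells only) was read by plate reader every 8 h for 72 h. Values are normalised to each well's pre-drug value. The stock of one drug was tenfold lower, so its dose labels may be too high.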

CN(Cc1cnc2nc(N)nc(N)c2n1)c1ccc(C(=O)N[C@@H](CCC(=O)O)C(=O)O)cc1 [Methotrexate]
relative JC-1 red fluorescence
Settings	8 h	16 h	24 h	32 h	40 h	48 h	56 h	64 h	72 h
10 µM, coculture fibroblast: C12385	0.8348	0.7274	0.713	0.63	0.587	0.569	0.547	0.535	0.535
10 µM, coculture fibroblast: H6013	0.893	0.768	0.795	0.806	0.806	0.852	0.833	0.83	0.816
10 µM, coculture fibroblast: H6019	0.741	0.683	0.667	0.592	0.553	0.541	0.507	0.487	0.466
10 µM, coculture fibroblast: H6076	0.7466	0.6	0.606	0.564	0.548	0.535	0.5437	0.5474	0.55089
10 µM, coculture fibroblast: H6231	0.718	0.647	0.567	0.516	0.491	0.459	0.455	0.437	0.431
10 µM, coculture fibroblast: HADF	0.81857	0.736	0.706	0.661	0.633	0.658	0.59415	0.5962	0.555
10 µM, coculture fibroblast: HCFa	0.795	0.695	0.674	0.641	0.6197	0.641	0.591	0.596	0.556
10 µM, coculture fibroblast: HCPF	0.71889	0.59	0.5685	0.502	0.488	0.453	0.4393	0.425	0.4231
10 µM, coculture fibroblast: HHSteC	0.86	0.815	0.817	0.8	0.811	0.826	0.79	0.789	0.748
10 µM, coculture fibroblast: HMF	0.721	0.554	0.539	0.499	0.482	0.451	0.465	0.455	0.467
10 µM, coculture fibroblast: HPFa	0.8917	0.8	0.7866	0.7439	0.7401	0.76	0.6972	0.696	0.6507
10 µM, coculture fibroblast: HUF	0.826	0.7361	0.7267	0.651	0.606	0.578	0.561	0.556	0.561
10 µM, coculture fibroblast: Hs5	0.773	0.671	0.634	0.569	0.549	0.507	0.519	0.488	0.494
10 µM, coculture fibroblast: Hs27A	0.856	0.831	0.821	0.808	0.786	0.876	0.798	0.798	0.746
10 µM, coculture fibroblast: Hs343T	0.661	0.591	0.576	0.531	0.523	0.497	0.503	0.505	0.518
10 µM, coculture fibroblast: WS1	0.8045	0.7	0.672	0.598	0.555	0.543	0.521	0.501	0.5
100 µM, coculture fibroblast: C12385	0.7421	0.719	0.706	0.624	0.587	0.569	0.547	0.534	0.526
100 µM, coculture fibroblast: H6013	0.797	0.743	0.736	0.728	0.72	0.752	0.723	0.719	0.693
100 µM, coculture fibroblast: H6019	0.764	0.6962	0.696	0.635	0.605	0.596	0.577	0.555	0.537
100 µM, coculture fibroblast: H6076	0.794	0.609	0.579	0.533	0.504	0.481	0.4894	0.4906	0.486
100 µM, coculture fibroblast: H6231	0.724	0.625	0.5679	0.4979	0.46376	0.4287	0.426	0.4166	0.403
100 µM, coculture fibroblast: HADF	0.788	0.736	0.715	0.6813	0.679	0.7107	0.65009	0.65117	0.6141
100 µM, coculture fibroblast: HCFa	0.755	0.7098	0.663	0.617	0.585	0.603	0.541	0.539	0.489
100 µM, coculture fibroblast: HCPF	0.755	0.586	0.593	0.536	0.495	0.47	0.451	0.44333	0.435
100 µM, coculture fibroblast: HHSteC	0.833	0.769	0.735	0.693	0.687	0.698	0.646	0.64	0.6
100 µM, coculture fibroblast: HMF	0.768	0.552	0.537	0.475	0.447	0.421	0.423	0.42	0.428
100 µM, coculture fibroblast: HPFa	0.857	0.775	0.747	0.6913	0.693	0.716	0.655	0.645	0.602
100 µM, coculture fibroblast: HUF	0.831	0.731	0.72	0.639	0.595	0.58	0.558	0.551	0.555
100 µM, coculture fibroblast: Hs5	0.825	0.652	0.62	0.553	0.5187	0.4776	0.47917	0.4607	0.4544
100 µM, coculture fibroblast: Hs27A	0.811	0.703	0.672	0.645	0.62	0.685	0.602	0.602	0.537
100 µM, coculture fibroblast: Hs343T	0.78	0.604	0.544	0.49	0.455	0.414	0.407	0.395	0.4
100 µM, coculture fibroblast: WS1	0.761	0.692	0.652	0.576	0.537	0.524	0.5041	0.4786	0.4639

Reference: the supplement of paper PMC6078165
